Reference: PubChem BioAssay AID270 (DTP/NCI, 2004)
The list is a part of this screen's results and no random one: it gathers tests that were run many times, whatever their T/C, doses with no T/C, and many T/C values between a quarter and a half above the control. Further doses and runs are listed elsewhere. T/C gives the treated animals as a percentage of the vehicle group. Schedules are NCI's codes, read here as Q, the interval in days (D) or hours (H), X, the number of doses. Some doses have a count of surviving animals in place of a T/C: the source holds a T/C of zero for them, seemingly a mark for toxic or unscored doses. Some survivor counts are full or nearly so, which does not show that the dose was tolerated: survival well below the control is almost never listed, so the zero probably covers shortened survival too. Survivors were counted at the toxicity check, usually on the fifth day, unless a day is given; later deaths do not show. Some schedules carry Z or #; the key to these is not given. Some molecules as drawn cover several salts, stereoisomers or complexes of the source; a dose is that of the sample tested. Signs of the kind (2×) give the number of equal values in this list. Some entries hold several experiments; their values stand side by side, smallest first. Where survival is the endpoint, the PubChem record calls one and a half times the control and up active, and a quarter to a half above the control has no call in these data; cut-offs in other NCI protocols can differ.

System: BDF1 mice, s.c. Lewis lung carcinoma, T/C %
Test: NCI In Vivo Anticancer Drug Screen. Data for tumor model Lewis Lung Carcinoma (subcutaneous) in B6D2F1 (BDF1) mice
In short: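 The value reflects a ratio in which the treated cohort's survival time or tumour size is compared against mice receiving only vehicle.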

[1] = T/C endpoint: median survival time, dose: 2.0 mg/kg/injection, schedule: Q01DX009 (ip), vehicle: saline, higher T/C = longer survival
[2] = T/C endpoint: median survival time, dose: 32.0 mg/kg/injection, schedule: Q01DX009 (ip), vehicle: water, higher T/C = longer survival
[3] = T/C endpoint: median survival time, dose: 64.0 mg/kg/injection, schedule: Q01DX009 (ip), vehicle: water, higher T/C = longer survival

O=C1c2ccccc2C(=O)c2c(NCCNCCO)ccc(NCCNCCO)c21
survivor count (T/C endpoint: median survival time, dose: 0.5 mg/kg/injection, schedule: Q01DX009 (ip), vehicle: saline with Tween-80, higher T/C = longer survival): 10 of 10
T/C (T/C endpoint: median survival time, dose: 0.5 mg/kg/injection, schedule: Q01DX009 (ip), vehicle: saline, higher T/C = longer survival): 135 % of control
survivor count (T/C endpoint: median survival time, dose: 1.0 mg/kg/injection, schedule: Q01DX009 (ip), vehicle: saline with Tween-80, higher T/C = longer survival): 9 of 10
survivor count (T/C endpoint: median survival time, dose: 2.0 mg/kg/injection, schedule: Q01DX009 (ip), vehicle: saline with Tween-80, higher T/C = longer survival): 10 of 10
T/C [1]: 127 % of control
survivor count [1]: 10 of 10
survivor count (T/C endpoint: median survival time, dose: 4.0 mg/kg/injection, schedule: Q01DX009 (ip), vehicle: Klucel (hydroxypropylcellulose) (HPC), higher T/C = longer survival): 10 of 10
T/C (T/C endpoint: median survival time, dose: 8.0 mg/kg/injection, schedule: Q01DX009 (ip), vehicle: water, higher T/C = longer survival): 126 % of control
T/C (T/C endpoint: median survival time, dose: 16.0 mg/kg/injection, schedule: Q01DX009 (ip), vehicle: Klucel (hydroxypropylcellulose) (HPC), higher T/C = longer survival): 131 % of control
T/C (T/C endpoint: median survival time, dose: 16.0 mg/kg/injection, schedule: Q01DX009 (ip), vehicle: other, higher T/C = longer survival): 128 % of control
survivor count (T/C endpoint: median survival time, dose: 16.0 mg/kg/injection, schedule: Q01DX009 (ip), vehicle: water, higher T/C = longer survival): 9 of 10
survivor count (T/C endpoint: median survival time, dose: 32.0 mg/kg/injection, schedule: Q01DX009 (ip), vehicle: Klucel (hydroxypropylcellulose) (HPC), higher T/C = longer survival): 10 of 10 (2×)
survivor count (T/C endpoint: median survival time, dose: 32.0 mg/kg/injection, schedule: Q01DX009 (ip), vehicle: acid diluted with saline, higher T/C = longer survival): 10 of 10
survivor count (T/C endpoint: median survival time, dose: 32.0 mg/kg/injection, schedule: Q01DX009 (ip), vehicle: other, higher T/C = longer survival): 10 of 10
survivor count (T/C endpoint: median survival time, dose: 32.0 mg/kg/injection, schedule: Q01DX009 (ip), vehicle: saline, higher T/C = longer survival): 10 of 10
survivor count [2]: 10 of 10
survivor count (T/C endpoint: median survival time, dose: 64.0 mg/kg/injection, schedule: Q01DX009 (ip), vehicle: Klucel (hydroxypropylcellulose) (HPC), higher T/C = longer survival): 8 of 10
survivor count (T/C endpoint: median survival time, dose: 64.0 mg/kg/injection, schedule: Q01DX009 (ip), vehicle: acid diluted with saline, higher T/C = longer survival): 6 of 10
survivor count (T/C endpoint: median survival time, dose: 64.0 mg/kg/injection, schedule: Q01DX009 (ip), vehicle: other, higher T/C = longer survival): 9 of 10
survivor count [3]: 9 of 10 and 10 of 10
survivor count (T/C endpoint: median survival time, dose: 80.0 mg/kg/injection, schedule: Q## X004 (ip), vehicle: saline, higher T/C = longer survival): 8 of 10

Nc1nc(N)nc(N)n1
survivor count (T/C endpoint: median survival time, dose: 800.0 mg/kg/injection, schedule: Q01DX009 (ip), vehicle: saline with Tween-80, higher T/C = longer survival): 1 of 10
survivor count (T/C endpoint: median survival time, dose: 1600.0 mg/kg/injection, schedule: Q01DX009 (ip), vehicle: saline with Tween-80, higher T/C = longer survival): 4 of 10

COc1ccc(CN2CCCN(Cc3ccc(OC)cc3)C2c2ccccc2)cc1
T/C (T/C endpoint: mean tumor weight, dose: 74.0 mg/kg/injection, schedule: Q01DX011 (ip), vehicle: other, evaluated on day 12, higher T/C = larger tumour): 138 % of control
T/C (T/C endpoint: mean tumor weight, dose: 166.0 mg/kg/injection, schedule: Q01DX011 (ip), vehicle: other, evaluated on day 12, higher T/C = larger tumour): 130 % of control

CCOC(=O)C(CC(C)C)NC(=O)C(Cc1ccc(N(CCCl)CCCl)cc1)NC(C)=O (stereo unspecified)
survivor count (T/C endpoint: median survival time, dose: 32.0 mg/kg/injection, schedule: Q01DX009 (ip), vehicle: saline with Tween-80, higher T/C = longer survival): 10 of 10
survivor count (T/C endpoint: median survival time, dose: 64.0 mg/kg/injection, schedule: Q01DX009 (ip), vehicle: saline with Tween-80, higher T/C = longer survival): 7 of 10

Cn1c(=O)[nH]c2nncnc2c1=O
survivor count (T/C endpoint: median survival time, dose: 2.0 mg/kg/injection, schedule: Q01DX009 (ip), vehicle: water, higher T/C = longer survival): 10 of 10
survivor count (T/C endpoint: median survival time, dose: 4.0 mg/kg/injection, schedule: Q01DX009 (ip), vehicle: water, higher T/C = longer survival): 10 of 10
survivor count [2]: 10 of 10
survivor count [3]: 1 of 10
